# Results reported in PubChem BioAssay AID2003 (Broad Institute, 2009).
# The other results are listed elsewhere or left out. Potency and affinity values are given separately. The source made no clear call on entries shown without one.
# Assay: PubChem AID 2003
# Details: H4 cells, SNCA 5'UTR luciferase reporter, luminescence; at 12 µM (top of the series) unless noted
row,Compound,activation
1,Cn1ccnc1SCC(=O)c1c[nH]c2ccccc12,24.5%
2,CC(=O)c1sc2nc(-c3cccs3)ccc2c1N,68.7%
3,CN=c1scc(-c2ccco2)n1/N=C/c1ccc(O)c(O)c1,104%
4,Cc1c(C(=O)N2CCOCC2)sc2nc(-c3ccccc3)cn12,59.2%
5,O=C(N/N=C/c1ccc2c(c1)OCO2)c1ccc(Br)o1,80.8%
6,CCCn1c(C)cc(C(=O)COc2ncnc3sccc23)c1C,34%
7,CCOC(=O)c1sc(NC(=O)C(C)(C)C)cc1C,105%
8,Cc1cc(C(=O)COC(=O)C2=COCCO2)c(C)n1-c1cccc(F)c1,-11.2%
9,COc1ccc2c(c1OC)C(=O)N1c3ccccc3SC21 (stereo not given),45.5%
10,Cn1cccc1CNC(=O)Nc1ccc(Cl)c(Cl)c1,79.4%
11,O=C(Nc1nnc(C2CC2)s1)C1Cc2ccccc2CN1S(=O)(=O)c1ccccc1F (stereo not given),33.9%
12,O=C(Nc1cccnc1)c1cc(-c2cc(Cl)ccc2O)n[nH]1,174%
13,Cc1cccc(Nc2nnc(SCC3CCCCO3)s2)c1 (stereo not given),76.9%
14,CN1C(=O)/C(=C/C=C2\SCCN2C)N(C)C1=S,76.8%
15,Cc1ccc(NC(=O)NCC2CC2(Cl)Cl)cc1 (stereo not given),48.1%
16,O=C(Nc1cccc(Cl)c1)c1cnn2cccnc12,98.6%
17,OCCCN1c2ccccc2Nc2nnc(-c3ccccc3)cc21,129%
18,Cc1cc(=O)oc2cc(OCC3CC(c4ccccc4Cl)=NO3)ccc12 (stereo not given),-36%
19,CCOc1ccc(N2C(=O)/C(=C/c3ccccc3)N=C2SC)cc1,12.7%
20,COCc1nc2oc3ccc(C)cc3c(=O)c2cc1C(=O)OC,87.3%
21,Nc1c(C(=O)N2CCCCC2)sc2nc3c(cc12)CCCC3,49.6%
22,CC(C)N=C1NN=C(c2ccc(Cl)c(Cl)c2)CS1,29.9%
23,Cn1ncc2c(Nc3ccc4ccccc4c3)ncnc21,104%
24,COc1ccc(N2Cc3ccc(OC)c(OC)c3C2=O)cc1,22.5%
25,Cc1ccc(NC(=O)CCOc2ccccc2)cc1,62.1%
26,N#Cc1c(N2CCOCC2)nsc1-c1ccc(C(F)(F)F)cc1,53.5%
27,COc1ccc(-c2ncc3ccccn23)cc1,47.2%

# Filtered by structure: those above containing four or more nitrogen atoms.
row,Compound,activation
11,O=C(Nc1nnc(C2CC2)s1)C1Cc2ccccc2CN1S(=O)(=O)c1ccccc1F (stereo not given),33.9%
12,O=C(Nc1cccnc1)c1cc(-c2cc(Cl)ccc2O)n[nH]1,174%
16,O=C(Nc1cccc(Cl)c1)c1cnn2cccnc12,98.6%
17,OCCCN1c2ccccc2Nc2nnc(-c3ccccc3)cc21,129%
23,Cn1ncc2c(Nc3ccc4ccccc4c3)ncnc21,104%

# (listing goes on)

row,Compound,activation
1,Clc1ccc2nnnc(-c3ccccc3)c2c1,17.2%
2,COc1cc2sc3ccc(-c4ccc5[nH]ccc5c4)cc3c(=O)c2cc1OC,64.6%
3,Oc1cccc2c(NC(=S)Nc3ccc(OC(F)F)cc3)cccc12,18.3%
4,COc1ccc(/C=C2\OC(=O)c3c(OC)cccc32)cc1OC,65.3%
5,COc1ccc(/C=C/C2=NC(=C\N(C)C)/C(=O)O2)cc1,71.3%
6,CC1CC1C(=O)OCc1cc(=O)n2cc(Br)ccc2n1 (stereo not given),29.8%
7,O=c1cccccc1NN=C1CCCCCC1,77.7%
8,C/C(=N\Nc1nc2c(s1)CCCC2)c1ccccc1,72.1%
9,c1ccc(C2=NNC(c3ccccn3)=NN2)nc1,-51.3%
10,Nc1nc(-c2sc3nc4c(cc3c2N)CCCC4)nc(N2CCOCC2)n1,46.9%
11,O=C(/C=C/c1c(F)cccc1Cl)Nc1nc2ccccc2[nH]1,89.9%
12,Cc1nn(-c2nc3ccccc3s2)c(N)c1-c1ccccc1,110%
13,Cc1ccc(C)c(N=Nc2nc3ccccc3n2C)c1,2.5%
14,Cc1ccc(/C=c2/sc3n(c2=O)CCCN=3)o1,27.9%
15,CCOc1c2ccc(C(=O)NCCc3cccs3)cc2nn1CC,43.7%
16,CCOc1ccc(C2=Nc3ccccc3C(c3ccc(N4CCOCC4)cc3)=NN2)cc1,48.1%
17,Cc1c(-c2nc(N)nc(Nc3ccccc3F)n2)oc2ccccc12,29.2%
18,c1ccc(CSc2ccc(-c3ccc4c(c3)OCO4)nn2)cc1,77.8%
19,Clc1ccc2nc(-c3ccc(Cl)nc3)[nH]c2c1,93.2%
20,Cn1c(C(=O)NCCc2c[nH]c3ccccc23)cc2sccc21,90.4%
21,COc1ccc(C(=O)n2c(N)nc3ccccc32)cc1OC,56.6%
22,COC(=O)c1ccccc1NC(=O)c1cccc(COc2ccccc2Cl)c1,-16.8%
23,COc1ccc(CCNC(=O)c2ccc3c(c2)OCCO3)cc1,59%
24,Nc1nc(NC(=O)c2cccs2)nn1-c1ccccc1,39.1%
25,Cn1cc(/C=N\NC(=O)c2cccs2)c2ccccc21,44.9%
26,O=C(Nc1ccc(F)cc1)/C(Cl)=C/c1ccccc1,202%
27,Cc1ccc(SSc2cc(C)ccc2N)c(N)c1,62.7%

row,Compound,activation
1,O=C(Nc1ccc2ccccc2n1)c1ccccc1Br,52.5%
2,CC(=Nc1ccccc1)c1sc2ccccc2c1O,0.5%
3,Cc1sc(NC(=O)C2CCCCC2)c(C#N)c1-c1ccccc1,45.5%
4,O=C(Nc1ccc(Cl)c(Cl)c1)c1ccc(Cn2cc(Cl)cn2)cc1,75.6%
5,CN(C)/C=N/c1cnc(C(=O)c2ccc(Cl)cc2)n1C,56.1%
6,CCOc1ccc(-c2cc(C(=O)N/N=C(\C)c3cccnc3)c3ccccc3n2)cc1,16.1%
7,Cc1cc(/C=C2/C(=O)NN(c3ccccc3)C2=O)c(C)n1-c1ccc(O)cc1,-4.3%
8,CCCn1cnc2cc(NCc3cccs3)ccc21,53.4%
9,Cc1csc(NC(=O)C2=COCCO2)n1,34.1%
10,O=C(Cc1nc2ccccc2[nH]c1=O)c1ccccc1,-27.1%
11,c1csc(CSc2nc3ccccc3s2)c1,91.6%
12,CC1CCc2c(sc(NC(=O)c3nc4ncccn4n3)c2C#N)C1 (stereo not given),22.6%
13,COc1ccc2c(c1OC)C(=O)OC2Nc1nc(-c2ccc(-c3ccccc3)cc2)cs1 (stereo not given),73%
14,CCC(C)C(=O)N1CCCC(c2nc(-c3cccs3)no2)C1 (stereo not given),53.8%
15,NC(=O)c1ccccc1N=Cc1ccc2ccccc2c1,13.5%
16,[O-][n+]1onc2c3ccnnc3ccc21,62.2% [at 6 µM]
17,O=C(C1CC(c2ccc(F)cc2)=NO1)N1CCCCC1 (stereo not given),28.1%
18,COC(=O)CSc1nc2cc3c(cc2cc1C#N)OCO3,116%
19,CC(C)c1ccc(/C=N/NC(=O)C2CCCC2)cc1,110%
20,Nc1ccc2nc(-c3ccccn3)[nH]c2c1,84.4%
21,CCOc1ccc(/C=C2\CCC(C3CCCC3)C2=O)cc1 (stereo not given),69.4%
22,CCOC(=O)c1ccccc1NC1c2ccccc2C(=O)N1c1ccc(C)cn1 (stereo not given),21.7%
23,O=C(Nc1nc(-c2ccccc2)ns1)c1cccs1,117%
24,CCOC(=O)Nc1ccc2nc(N3CCCCCC3)sc2c1,-20.4%
25,COc1ccc(/C=C/C(=O)c2c(C)nc3ccccn23)cc1,126%
26,CC(=O)Nc1ccc(O)c(-c2nc3ccccc3s2)c1,175%
